Test results from patent US20220132839A1, “MOSQUITO ATTRACTANT COMPOSITIONS” (UNIVERSITY OF WASHINGTON, priority 2019, published 2022).
At least one compound was matched to its structure with a doubt left.

System: Ae. aegypti AL glomeruli
Assay: Two-photon calcium imaging (PUb-GCaMP6s) of the antennal lobe, Ae. aegypti
Type: in vivo
Details: different concentrations; R^2≥0.75, p<0.05
From the text: A total of twenty preparations were used: 10 for single odorant and orchid mixture experiments; 6 for ratio experiments; and 4 for experiments using GABA-receptor antagonists. […] The expression of GCaMP occurred in glia, local interneurons, and projection neurons. […] Thus, in the calcium imaging experiments care was taken to image from the central regions of the glomeruli and avoid the sheaths and external glomerular loci. […] Relatedly, GCaMP6s expression is very high in AL local interneurons and projection neurons (PNs), such that during odor stimulation the PNs and axonal processes can often be imaged, and 3D reconstructions can be take place through simultaneous optical sections with odor stimulation. Nonetheless, the glomerular responses were assumed to be a function of multiple cell types. […]
Saline and pharmacological agents. […] Antagonists were superfused directly into the holder near to the opening of the head capsule and recorded neuropil. The odor-evoked responses were first recorded under normal physiological saline solution and then repeated under GABA receptor antagonists diluted in normal saline solution, and finally the normal saline wash. All calcium imaging data were statistically analyzed using Kruskal-Wallis tests with multiple comparisons and visualized using Principal Components Analysis. […]

Structure (SMILES): C=CC1(C)CCC(C(C)C=O)O1 (stereo not shown) [lilac aldehyde, 5-dimethyl-5-ethenyl-2-tetrahydrofuranacetaldehydes]
- dose-response curve model fit for AM2 responses: y=1.01x^0.39
